The test system of this experiment is BDF1 mice, P388 leukemia ip, median survival T/C. The experiment can be described thus: NCI In Vivo Anticancer Drug Screen. Data for tumor model P388 Leukemia (intraperitoneal) in B6D2F1 (BDF1) mice. As to conditions: T/C endpoint: median survival time, higher T/C = longer survival. The gist of the method: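 Transplantable tumour in mice; compound vs vehicle dosing; survival scored; ratio of treated to control reported.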

Setting [1] is: dose: 50.0 mg/kg/injection, schedule: Q01DX009 (ip), vehicle: saline with Tween-80.
Where [2] appears, read: dose: 100.0 mg/kg/injection, schedule: Q01DX009 (ip), vehicle: saline with Tween-80.
[3] abbreviates: dose: 400.0 mg/kg/injection, schedule: Q04DX003 (ip), vehicle: saline with Tween-80.
Where [4] appears, read: dose: 10.0 mg/kg/injection, schedule: Q04DX003 (ip), vehicle: water.
[5] abbreviates: dose: 20.0 mg/kg/injection, schedule: Q04DX003 (ip), vehicle: water.

The list is a part of this screen's results and no random one: it is rich in T/C values a quarter to a half above the control, in often repeated tests (any T/C) and in doses without a T/C. Other doses and runs of a compound stand elsewhere. T/C is the treated group as % of the vehicle group. Some entries give survivors of the animals treated and no T/C: the source files T/C as zero there, which appears to mark a toxic dose or a test without result, not a measured value. Some doses without a T/C left all or most animals alive at the check, yet need not have been tolerated: survival well below the control is almost never listed, so the zero probably covers shortened survival too. Counts of survivors are from the toxicity check (mostly the fifth day) where no day follows; animals may have died later. Schedules are NCI's codes, read here as Q, the interval in days (D) or hours (H), X, the number of doses. Some entries were tested several times; their values stand side by side, smallest first. For survival time, the PubChem record calls one and a half times the control and up active, and a quarter to a half above the control has no call in these data; cut-offs in other NCI protocols can differ. Some T/C values are followed by the survivors on the day toxicity was checked, most often the fifth; where none is given, no animal had died by that day.

For the compound `CCOC(=O)Nc1cc2c(c(N)n1)N=C(c1ccccc1)CN2`, the T/C (dose: 2.0 mg/kg/injection, schedule: Q04DX003 (ip), vehicle: saline with Tween-80) was 126 % of control and the T/C (dose: 4.5 mg/kg/injection, schedule: Q04DX003 (ip), vehicle: saline with Tween-80) is 142 % of control.
For `CCOC(=O)C(N)C[S][Sn]([CH3])([CH3])[Cl]` (stereo not drawn), the T/C was 127 % of control (dose: 25.0 mg/kg/injection, schedule: Q01DX009 (ip), vehicle: saline) and 142 % of control (dose: 50.0 mg/kg/injection, schedule: Q01DX009 (ip), vehicle: saline).
Take `CCCCCCCCCCCCCCCC(=O)N(CCCN)C(C)CCCN(CC)CC` (stereo not drawn): the survivor count is, setting by setting: under setting [1], 0 of 6; under setting [2], 0 of 6; (dose: 200.0 mg/kg/injection, schedule: Q04DX003 (ip), vehicle: saline with Tween-80) 3 of 6; under setting [3], 1 of 6.
Regarding `COc1cc(C(C)O)cc(OC)c1OC` (stereo not drawn), the survivor count (dose: 400.0 mg/kg/injection, schedule: Q01DX009 (ip), vehicle: saline with Tween-80) is on record as 6 of 6.
For the compound `Cc1ccc2ccccc2n1`, the survivor count (dose: 400.0 mg/kg/injection, schedule: Q04DX003 (ip), vehicle: saline) was 6 of 6.
Regarding `C[S+](C)N(c1ccc(Cl)cc1)C(C)(C)C`, the survivor count (dose: 100.0 mg/kg/injection, schedule: Q01DX001 (ip), vehicle: saline) is given as 0 of 6.
Turning to `O=[N+]([O-])c1ccc(/C=C2\c3ccccc3-c3nc4ccccc4nc32)cc1`, where the note is “dose: 75.0 mg/kg/injection, schedule: Q01DX001 (ip), vehicle: other”, the survivor count is 6 of 6.
In the case of `O=S(=O)(O)c1ccc(-c2ccccc2)cc1`, the survivor count is reported as 5 of 6 (dose: 100.0 mg/kg/injection, schedule: Q01DX009 (ip), vehicle: Klucel (hydroxypropylcellulose) (HPC)); 5 of 6 (dose: 200.0 mg/kg/injection, schedule: Q01DX009 (ip), vehicle: Klucel (hydroxypropylcellulose) (HPC)); 6 of 6 (dose: 200.0 mg/kg/injection, schedule: Q04DX003 (ip), vehicle: Klucel (hydroxypropylcellulose) (HPC)); 0 of 6 (dose: 400.0 mg/kg/injection, schedule: Q01DX009 (ip), vehicle: Klucel (hydroxypropylcellulose) (HPC)); 5 of 6 (dose: 400.0 mg/kg/injection, schedule: Q04DX003 (ip), vehicle: Klucel (hydroxypropylcellulose) (HPC)).
Turning to `CC(CCC(=O)NC12CC3CC(CC(C3)C1)C2)C1CCC2C3C(OC=O)CC4CC(OC=O)CCC4(C)C3CC(OC=O)C12C` (stereo not drawn), the survivor count (dose: 100.0 mg/kg/injection, schedule: Q04DX002 (ip), vehicle: saline with Tween-80) is reported as 6 of 6.
For the compound `CC1(C)COCN1COCCOCN1COCC1(C)C`, the T/C is, setting by setting: under setting [1], 127 % of control; under setting [2], 139 % of control. In addition, where the note is “dose: 200.0 mg/kg/injection, schedule: Q01DX009 (ip), vehicle: saline with Tween-80”, the survivor count is recorded as 3 of 6.
With `C=CC1CN2CCC1CC2C(O)c1ccnc2ccccc12` (stereo not drawn), under setting [3], the survivor count was 0 of 6.
For `COc1cc(C)c(C#N)c(OC)n1`, the survivor count is, setting by setting: (dose: 50.0 mg/kg/injection, schedule: Q01DX005 (ip), vehicle: saline with Tween-80) 4 of 5; (dose: 100.0 mg/kg/injection, schedule: Q01DX005 (ip), vehicle: saline with Tween-80) 2 of 5; (dose: 200.0 mg/kg/injection, schedule: Q01DX005 (ip), vehicle: saline with Tween-80) 0 of 5.
With `N[C@@H](Cc1ccc(N(CCCl)CCCl)cc1)C(=O)O`, the survivor count (dose: 4.0 mg/kg/injection, schedule: Q01DX009 (ip), vehicle: saline) is 10 of 10; the survivor count (dose: 8.0 mg/kg/injection, schedule: Q01DX009 (ip), vehicle: saline) is 6 of 10 and 9 of 10; the survivor count (dose: 8.0 mg/kg/injection, schedule: Q01DX010 (ip), vehicle: saline) is on record as 6 of 6; the survivor count under setting [4] was 6 of 6; the survivor count (dose: 16.0 mg/kg/injection, schedule: Q01DX009 (ip), vehicle: saline) is 6 of 10; the survivor count under setting [5] is listed as 5 of 6. In addition, the survivor count reads like this: (dose: 32.0 mg/kg/injection, schedule: Q01DX009 (ip), vehicle: saline) 3 of 10; (dose: 40.0 mg/kg/injection, schedule: Q04DX003 (ip), vehicle: water) 0 of 6; (dose: 64.0 mg/kg/injection, schedule: Q01DX009 (ip), vehicle: saline) 4 of 10; (dose: 128.0 mg/kg/injection, schedule: Q01DX009 (ip), vehicle: saline) 0 of 10; (dose: 256.0 mg/kg/injection, schedule: Q01DX009 (ip), vehicle: saline) 0 of 10. The T/C is, setting by setting: (dose: 5.0 mg/kg/injection, schedule: Q04DX003 (ip), vehicle: water, evaluated on day 30) 234, 236, 264 % of control; (dose: 5.0 mg/kg/injection, schedule: Q04DX003 (ip), vehicle: water, evaluated on day 45) 111 % of control; (dose: 6.0 mg/kg/injection, schedule: Q04DX003 (ip), vehicle: Klucel (hydroxypropylcellulose) (HPC), evaluated on day 5) 112, 206, 413 % of control; (dose: 6.0 mg/kg/injection, schedule: Q04DX003 (ip), vehicle: Klucel (hydroxypropylcellulose) (HPC), evaluated on day 60) 112, 206, 413, 427 % of control; (dose: 8.0 mg/kg/injection, schedule: Q01DX001 (ip), vehicle: Klucel (hydroxypropylcellulose) (HPC), evaluated on day 5) 119, 176, 208, 263, 520 % of control; (dose: 8.0 mg/kg/injection, schedule: Q01DX001 (ip), vehicle: Klucel (hydroxypropylcellulose) (HPC), evaluated on day 60) 120, 176, 208, 245, 263, 520 % of control. The T/C (dose: 9.0 mg/kg/injection, schedule: Q04DX003 (ip), vehicle: Klucel (hydroxypropylcellulose) (HPC), evaluated on day 5) is 107, 260, 520 % of control; the T/C (dose: 9.0 mg/kg/injection, schedule: Q04DX003 (ip), vehicle: Klucel (hydroxypropylcellulose) (HPC), evaluated on day 60) is listed as 107, 260, 520, 545 % of control; the T/C (dose: 10.0 mg/kg/injection, schedule: Q01DX001 (ip), vehicle: saline) is listed as 295, 324, 400, 534, 536, 541, 549, 565 % of control; the T/C under setting [4] was 176 [5 of 6 alive], 232, 263 % of control; the T/C (dose: 12.0 mg/kg/injection, schedule: Q01DX001 (ip), vehicle: Klucel (hydroxypropylcellulose) (HPC), evaluated on day 5) is recorded as 113, 243, 294, 520, 532 % of control; the T/C (dose: 12.0 mg/kg/injection, schedule: Q01DX001 (ip), vehicle: Klucel (hydroxypropylcellulose) (HPC), evaluated on day 60) was 113, 243, 294, 363, 520, 532 % of control. For the same compound, the T/C by setting is: (dose: 12.0 mg/kg/injection, schedule: Q04DX003 (ip), vehicle: Klucel (hydroxypropylcellulose) (HPC), evaluated on day 5) 252, 350, 521 % of control; (dose: 12.0 mg/kg/injection, schedule: Q04DX003 (ip), vehicle: Klucel (hydroxypropylcellulose) (HPC), evaluated on day 60) 252, 350, 521 % of control; (dose: 12.5 mg/kg/injection, schedule: Q01DX001 (ip), vehicle: saline) 293, 525, 534, 540, 548, 565 % of control; (dose: 15.0 mg/kg/injection, schedule: Q01DX001 (ip), vehicle: saline) 431, 526 [9 of 10 alive], 535, 540, 549, 565 % of control; (dose: 18.0 mg/kg/injection, schedule: Q01DX001 (ip), vehicle: Klucel (hydroxypropylcellulose) (HPC), evaluated on day 5) 109, 205, 254, 347, 520 % of control; (dose: 18.0 mg/kg/injection, schedule: Q01DX001 (ip), vehicle: Klucel (hydroxypropylcellulose) (HPC), evaluated on day 60) 109, 205, 227, 254, 347, 520 % of control. Under setting [5], the T/C was 105, 113, 116 % of control.
For `CN1CCC23c4ccccc4NC1C21CCN(C)C3Nc2ccccc21`, the survivor count runs as follows: (dose: 40.0 mg/kg/injection, schedule: Q01DX010 (ip), vehicle: carboxymethylcellulose (CMC)) 3 of 6; (dose: 80.0 mg/kg/injection, schedule: Q01DX010 (ip), vehicle: carboxymethylcellulose (CMC)) 0 of 6; (dose: 160.0 mg/kg/injection, schedule: Q01DX010 (ip), vehicle: carboxymethylcellulose (CMC)) 0 of 6.

The record behind these values is PubChem BioAssay AID328 (DTP/NCI, 2004).
